Assay results taken from US12209086B2, “FGFR3 inhibitor compounds” (ELI LILLY AND COMPANY, priority 2021, dated 2025).
Some results were stated once for a whole list of compounds, not compound by compound.

Sequences of proteins named here, by UniProt entry; tags and fusion partners are left off. Residues count along the entry.
UniProt P22607, 23-806: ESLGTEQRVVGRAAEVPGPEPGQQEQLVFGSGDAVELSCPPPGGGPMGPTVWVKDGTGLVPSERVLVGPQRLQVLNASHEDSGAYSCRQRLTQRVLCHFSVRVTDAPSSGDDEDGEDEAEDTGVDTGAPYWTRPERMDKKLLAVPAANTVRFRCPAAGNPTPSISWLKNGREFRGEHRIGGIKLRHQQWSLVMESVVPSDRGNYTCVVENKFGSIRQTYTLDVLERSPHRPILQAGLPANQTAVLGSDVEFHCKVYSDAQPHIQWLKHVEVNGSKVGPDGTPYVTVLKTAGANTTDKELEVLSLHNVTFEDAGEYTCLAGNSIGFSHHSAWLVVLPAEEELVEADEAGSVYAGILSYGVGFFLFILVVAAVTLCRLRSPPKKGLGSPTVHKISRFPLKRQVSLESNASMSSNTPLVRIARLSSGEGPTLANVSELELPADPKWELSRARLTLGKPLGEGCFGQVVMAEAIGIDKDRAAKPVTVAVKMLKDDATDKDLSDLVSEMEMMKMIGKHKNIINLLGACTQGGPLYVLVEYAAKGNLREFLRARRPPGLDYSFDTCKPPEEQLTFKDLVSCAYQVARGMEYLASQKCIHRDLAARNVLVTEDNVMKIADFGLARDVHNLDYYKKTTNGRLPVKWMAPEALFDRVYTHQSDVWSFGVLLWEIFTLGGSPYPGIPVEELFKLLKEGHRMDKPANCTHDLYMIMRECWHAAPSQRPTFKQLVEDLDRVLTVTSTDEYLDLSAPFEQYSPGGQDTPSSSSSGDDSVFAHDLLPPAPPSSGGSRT

target: T1, FGFR3 protein (Homo sapiens, UniProt P22607); assay: FGFR3 enzyme assay (KinEASE-TK HTRF kinase assay); assay type: biochemical; settings: 0.25 nM enzyme, ATP at Km, 15 min pre-incubation on ice, 30 min at 30° C.
T1 construct: purchased Reaction Biology 1068

IC50, < 350 nM:
Cc1c(-c2cc(O[C@H](C)c3ccc(F)cn3)n3c(C#N)cnc3c2)nnn1[C@@H]1CCCN(C#N)C1 [Example 260, 7-[1-[(3R)-1-Cyano-3-piperidyl]-5-methyl-triazol-4-yl]-5-[(1R)-1-(5-fluoro-2-pyridyl)ethoxy]imidazo[1,2-a]pyridine-3-carbonitrile]
Cc1c(-c2cc(N[C@H](C)c3ccc(F)cn3)n3c(C#N)cnc3c2)nnn1C1CCN(C#N)CC1 [Example 261, 7-[1-(1-Cyano-4-piperidyl)-5-methyl-triazol-4-yl]-5-[[(1R)-1-(5-fluoro-2-pyridyl)ethyl]amino] imidazo[1,2-a]pyridine-3-carbonitrile]
Cc1c(-c2cc(N[C@H](C)c3ccccn3)n3c(C#N)cnc3c2)cnn1C1CCN(C#N)CC1 [Example 262, 7-[1-(1-Cyano-4-piperidyl)-5-methyl-pyrazol-4-yl]-5-[[(1R)-1-(2-pyridyl)ethyl]amino] imidazo[1,2-a]pyridine-3-carbonitrile]
Cc1c(-c2cc(O[C@H](C)c3ccncn3)n3c(C#N)cnc3c2)nnn1C1CCN(C#N)CC1 [Example 263, 7-[1-(1-Cyano-4-piperidyl)-5-methyl-triazol-4-yl]-5-[(1R)-1-pyrimidin-4-ylethoxy]imidazo [1,2-a]pyridine-3-carbonitrile]
Cc1c(-c2cc(O[C@H](C)c3c(F)cccc3F)n3c(C#N)cnc3c2)nnn1C1CCN(C#N)CC1 [Example 265, 7-[1-(1-Cyano-4-piperidyl)-5-methyl-triazol-4-yl]-5-[(1R)-1-(2,6-difluorophenyl)ethoxy]imidazo[1,2-a]pyridine-3-carbonitrile]
Cc1c(-c2cc(O[C@H](C)c3ccc(F)cc3Cl)n3c(C#N)cnc3c2)nnn1C1CCN(C#N)CC1 [Example 266, 5-[(1R)-1-(2-Chloro-4-fluoro-phenyl)ethoxy]-7-[1-(1-cyano-4-piperidyl)-5-methyl-triazol-4-yl]imidazo[1,2-a]pyridine-3-carbonitrile]
Cc1cc(F)cnc1[C@@H](C)Oc1cc(-c2nnn(C3CCN(C#N)CC3)c2C)cc2ncc(C#N)n12 [Example 267, 7-[1-(1-Cyano-4-piperidyl)-5-methyl-triazol-4-yl]-5-[(1R)-1-(5-fluoro-3-methyl-2-pyridyl)ethoxy] imidazo[1,2-a]pyridine-3-carbonitrile]
Cc1c(-c2cc(OCc3ccc(F)cn3)n3c(C#N)cnc3c2)nnn1C1CCN(C#N)CC1 [Example 268, 7-[1-(1-Cyano-4-piperidyl)-5-methyl-triazol-4-yl]-5-[(5-fluoro-2-pyridyl)methoxy] imidazo[1,2-a]pyridine-3-carbonitrile]
Cc1c(-c2cc(O[C@H](C)c3ccc(Cl)cn3)n3c(C#N)cnc3c2)nnn1C1CCN(C#N)CC1 [Example 269, 5-[(1R)-1-(5-Chloro-2-pyridyl)ethoxy]-7-[1-(1-cyano-4-piperidyl)-5-methyl-triazol-4-yl]imidazo[1,2-a]pyridine-3-carbonitrile]
Cc1c(-c2cc(O[C@H](C)c3ccc(F)cn3)c3c(C#N)cnn3c2)nnn1C1CCN(C#N)CC1 [Example 270, 6-[1-(1-Cyano-4-piperidyl)-5-methyl-triazol-4-yl]-4-[(1R)-1-(5-fluoro-2-pyridyl)ethoxy]pyrazolo[1,5-a]pyridine-3-carbonitrile]
Cc1c(-c2cc(O[C@H](C)c3ccc(F)cn3)c3c(-c4cnsc4)cnn3c2)nnn1C1CCN(C#N)CC1 [Example 271, 4-[4-[4-[(1R)-1-(5-Fluoro-2-pyridyl)ethoxy]-3-isothiazol-4-yl-pyrazolo[1,5-a]pyridin-6-yl]-5-methyl-triazol-1-yl]piperidine-1-carbonitrile]
Cc1c(-c2cc(O[C@H](C)c3ccc(F)cn3)c3c(C4CC4)cnn3c2)nnn1C1CCN(C#N)CC1 [Example 272, 4-[4-[3-Cyclopropyl-4-[(1R)-1-(5-fluoro-2-pyridyl)ethoxy]pyrazolo[1,5-a]pyridin-6-yl]-5-methyl-triazol-1-yl]piperidine-1-carbonitrile]
Cc1c(-c2cc(O[C@H](C)c3ccc(F)cn3)n3c(C#N)cnc3c2)c(CCO)nn1C1CCN(C#N)CC1 [Example 273, 7-[1-(1-Cyano-4-piperidyl)-3-(2-hydroxyethyl)-5-methyl-pyrazol-4-yl]-5-[(1R)-1-(5-fluoro-2-pyridyl)ethoxy]imidazo[1,2-a]pyridine-3-carbonitrile]
Cc1c(-c2cc(O[C@H](C)c3ccccn3)n3c(C#N)cnc3c2)nnn1CC(C)(C)N1CCN(C#N)CC1 [Example 275, 7-[1-[2-(4-Cyanopiperazin-1-yl)-2-methyl-propyl]-5-methyl-triazol-4-yl]-5-[(1R)-1-(2-pyridyl)ethoxy] imidazo[1,2-a]pyridine-3-carbonitrile]
COc1cc(-c2cnn([C@@H]3CCCN(C#N)CC3)c2C)cn2ncc(C#N)c12 [Example 287, (4R)-4-(4-[3-Cyano-4-methoxypyrazolo[1,5-a]pyridin-6-yl]-5-methylpyrazol-1-yl)azepane-1-carbonitrile]
COc1cc(-c2cnn([C@H]3CCCN(C#N)CC3)c2C)cn2ncc(C#N)c12 [Example 288, (4S)-4-(4-[3-Cyano-4-methoxypyrazolo [1,5-a]pyridin-6-yl]-5-methylpyrazol-1-yl)azepane-1-carbonitrile]
COc1cc(-c2nnc(N3CCN(C#N)CC3)n2C)cn2ncc(C#N)c12 [Example 289, 6-[5-(4-cyanopiperazin-1-yl)-4-methyl-1,2,4-triazol-3-yl]-4-methoxy-pyrazolo [1,5-a]pyridine-3-carbonitrile]
Cc1c(-c2cc(O[C@H](C)c3cccnc3)n3c(C#N)cnc3c2)nnn1C1CCN(C#N)CC1 [Example 290, 7-[1-(1-cyano-4-piperidyl)-5-methyl-triazol-4-yl]-5-[(1R)-1-(3-pyridyl)ethoxy] imidazo[1,2-a] pyridine-3-carbonitrile]
Cc1nc([C@@H](C)Oc2cc(-c3nnn(C4CCN(C#N)CC4)c3C)cn3ncc(C#N)c23)cs1 [Example 291, 6-[1-(1-Cyano-4-piperidyl)-5-methyl-triazol-4-yl]-4-[(1R)-1-(2-methylthiazol-4-yl)ethoxy]pyrazolo [1,5-a]pyridine-3-carbonitrile]
Cc1c(-c2cc(O[C@H](C)c3ccn(C)n3)c3c(C#N)cnn3c2)nnn1C1CCN(C#N)CC1 [Example 292, 6-[1-(1-Cyano-4-piperidyl)-5-methyl-triazol-4-yl]-4-[(1R)-1-(1-methylpyrazol-3-yl)ethoxy]pyrazolo [1,5-a]pyridine-3-carbonitrile]
Cc1c(-c2cc(O[C@H](C)c3ccc(F)cc3F)n3c(C#N)cnc3c2)nnn1C1CCN(C#N)CC1 [Example 293, 7-[1-(1-Cyano-4-piperidyl)-5-methyl-triazol-4-yl]-5-[(1R)-1-(2,4-difluorophenyl)ethoxy]imidazo[1,2-a]pyridine-3-carbonitrile]
Cc1c(-c2cc(O[C@H](C)c3ccc(F)cc3)n3c(C#N)cnc3c2)nnn1C1CCN(C#N)CC1 [Example 294, 7-[1-(1-Cyano-4-piperidyl)-5-methyl-triazol-4-yl]-5-[(1R)-1-(4-fluorophenyl)ethoxy] imidazo[1,2-a]pyridine-3-carbonitrile]
